According to publication PMC3464197:
Results are given in words; binding and its absence hold for the method and conditions named. Binding seen in cells or lysates may run through a third protein. Binding can be weak; no strength is given. Where a sequence is shown, tags or fusion partners need not be part of it.

Target: T1, Cullin-3 (CUL3), V5-tagged (Drosophila) (UniProt Q9V475)
T1 sequence: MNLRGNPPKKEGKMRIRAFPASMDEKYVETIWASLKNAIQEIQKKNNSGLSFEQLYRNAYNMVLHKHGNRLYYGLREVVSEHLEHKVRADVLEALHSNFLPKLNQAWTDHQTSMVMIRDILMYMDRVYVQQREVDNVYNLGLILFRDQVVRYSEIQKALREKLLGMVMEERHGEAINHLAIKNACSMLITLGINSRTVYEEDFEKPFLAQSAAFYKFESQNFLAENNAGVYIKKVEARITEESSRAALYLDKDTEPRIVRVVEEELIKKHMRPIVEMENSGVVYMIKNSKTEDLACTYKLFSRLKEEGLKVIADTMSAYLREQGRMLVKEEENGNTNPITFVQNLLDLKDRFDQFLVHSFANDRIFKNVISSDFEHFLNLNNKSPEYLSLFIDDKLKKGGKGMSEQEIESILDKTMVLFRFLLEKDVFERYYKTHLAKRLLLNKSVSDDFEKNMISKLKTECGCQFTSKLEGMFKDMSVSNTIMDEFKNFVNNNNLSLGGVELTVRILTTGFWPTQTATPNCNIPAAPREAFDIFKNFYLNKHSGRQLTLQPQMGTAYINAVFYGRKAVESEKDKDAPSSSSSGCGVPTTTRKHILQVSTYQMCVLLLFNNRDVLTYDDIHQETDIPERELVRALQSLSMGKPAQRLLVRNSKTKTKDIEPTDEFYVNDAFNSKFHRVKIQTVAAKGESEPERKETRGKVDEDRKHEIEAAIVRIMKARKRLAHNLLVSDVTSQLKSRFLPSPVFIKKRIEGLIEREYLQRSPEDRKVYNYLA
Experiment: co-IP; α-V5 agarose immunoprecipitation from supernatant of transfected S2 cells (Cul3-V5, inc-HA and/or inc-V5) lysed 24 h after transfection in T150 buffer (25 mM Tris-Cl pH 7.5, 150 mM NaCl, 10% glycerol, 1 mM EDTA, 1 mM DTT, 0.5% NP-40, 1 mM PMSF); 1.5 h at 4°C; blotted with α-HA to detect INC-HA

With “Insomniac (INC), epitope-tagged (Drosophila)” the binding was “binds”.
